{
  "source": "paper doi:10.1101/2025.11.28.691250",
  "key": {"[1]": {"target": "T1, X chromosome-associated protein 5 (Xap5) (mouse (endogenous in NIH/3T3)) (UniProt Q9WV03)", "T1 sequence": "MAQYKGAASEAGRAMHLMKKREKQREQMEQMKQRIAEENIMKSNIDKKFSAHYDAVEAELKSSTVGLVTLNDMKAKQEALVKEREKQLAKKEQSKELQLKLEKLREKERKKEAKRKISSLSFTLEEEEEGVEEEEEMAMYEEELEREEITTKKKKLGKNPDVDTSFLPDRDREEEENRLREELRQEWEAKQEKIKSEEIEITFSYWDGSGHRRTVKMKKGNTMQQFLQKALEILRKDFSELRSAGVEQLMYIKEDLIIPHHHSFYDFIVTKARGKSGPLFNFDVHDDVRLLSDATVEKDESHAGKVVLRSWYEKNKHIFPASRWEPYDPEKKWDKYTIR", "test": "co-IP"}, "[2]": {"target": "T2, Non-POU domain-containing octamer-binding protein (Nono) (mouse (endogenous in NIH/3T3)) (UniProt Q99K48)", "T2 sequence": "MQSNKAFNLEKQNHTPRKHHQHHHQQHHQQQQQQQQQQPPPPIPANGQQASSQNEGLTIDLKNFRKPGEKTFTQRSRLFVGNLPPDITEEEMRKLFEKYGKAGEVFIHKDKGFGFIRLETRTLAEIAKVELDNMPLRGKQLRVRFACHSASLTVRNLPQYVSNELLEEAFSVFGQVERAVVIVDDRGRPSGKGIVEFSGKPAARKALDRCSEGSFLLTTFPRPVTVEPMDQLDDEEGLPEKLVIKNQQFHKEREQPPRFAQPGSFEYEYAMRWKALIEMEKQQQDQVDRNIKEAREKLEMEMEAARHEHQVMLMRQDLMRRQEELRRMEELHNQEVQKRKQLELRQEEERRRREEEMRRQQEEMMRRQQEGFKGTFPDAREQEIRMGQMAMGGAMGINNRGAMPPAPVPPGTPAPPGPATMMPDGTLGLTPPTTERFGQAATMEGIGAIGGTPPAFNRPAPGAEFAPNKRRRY", "test": "co-IP"}},
  "note": "Results are given in words; binding and its absence hold for the method and conditions named. In cells and extracts the contact can be indirect. Some binding calls cover weakened binding; strength is not graded here.",
  "data": [
    {"binder": "Non-POU domain-containing octamer-binding protein (Nono) (protein, UniProt Q99K48 1-473) MQSNKAFNLEKQNHTPRKHHQHHHQQHHQQQQQQQQQQPPPPIPANGQQASSQNEGLTIDLKNFRKPGEKTFTQRSRLFVGNLPPDITEEEMRKLFEKYGKAGEVFIHKDKGFGFIRLETRTLAEIAKVELDNMPLRGKQLRVRFACHSASLTVRNLPQYVSNELLEEAFSVFGQVERAVVIVDDRGRPSGKGIVEFSGKPAARKALDRCSEGSFLLTTFPRPVTVEPMDQLDDEEGLPEKLVIKNQQFHKEREQPPRFAQPGSFEYEYAMRWKALIEMEKQQQDQVDRNIKEAREKLEMEMEAARHEHQVMLMRQDLMRRQEELRRMEELHNQEVQKRKQLELRQEEERRRREEEMRRQQEEMMRRQQEGFKGTFPDAREQEIRMGQMAMGGAMGINNRGAMPPAPVPPGTPAPPGPATMMPDGTLGLTPPTTERFGQAATMEGIGAIGGTPPAFNRPAPGAEFAPNKRRRY", "values": [
      {"measurement": "binding", "setting": "[1]", "value": "binds"}
    ]},
    {"binder": "X chromosome-associated protein 5 (Xap5) (protein, UniProt Q9WV03 1-339) MAQYKGAASEAGRAMHLMKKREKQREQMEQMKQRIAEENIMKSNIDKKFSAHYDAVEAELKSSTVGLVTLNDMKAKQEALVKEREKQLAKKEQSKELQLKLEKLREKERKKEAKRKISSLSFTLEEEEEGVEEEEEMAMYEEELEREEITTKKKKLGKNPDVDTSFLPDRDREEEENRLREELRQEWEAKQEKIKSEEIEITFSYWDGSGHRRTVKMKKGNTMQQFLQKALEILRKDFSELRSAGVEQLMYIKEDLIIPHHHSFYDFIVTKARGKSGPLFNFDVHDDVRLLSDATVEKDESHAGKVVLRSWYEKNKHIFPASRWEPYDPEKKWDKYTIR", "values": [
      {"measurement": "binding", "setting": "[2]", "value": "binds"}
    ]}
  ]
}
